Results are given in words; binding and its absence hold for the method and conditions named. For some of these results: Binding calls can cover weak binding; strength is not graded here.
Experiments:
[1] = target: NQO2 (Genbank ID: J02888) (human) (UniProt P16083); assay: Y2H
[2] = target: NQO2 (Genbank ID: J02888) (human) (UniProt P16083); assay: Y2H 1x1 mating
[3] = target: SNAP25A (Genbank ID: D21267) (human); assay: Y2H 1x1 mating, binder AD fusion, target BD fusion
[4] = target: NQO2 (Genbank ID: J02888) (human) (UniProt P16083); assay: Y2H 1x1 mating, binder bait column, target prey column
[5] = target: Fibrinogen (Genbank ID: M58569), S100B interactor (human); assay: Y2H 1x1 mating, binder AD fusion, target BD fusion
[6] = target: NQO2 (Genbank ID: J02888) (human) (UniProt P16083); assay: Y2H 1x1 mating, binder AD fusion, target BD fusion

Chains of the proteins cited; added tags and fusions are not shown. Lines headed by an entry give the natural chain unless they say otherwise; changes in a name come on top.
UniProt P16083: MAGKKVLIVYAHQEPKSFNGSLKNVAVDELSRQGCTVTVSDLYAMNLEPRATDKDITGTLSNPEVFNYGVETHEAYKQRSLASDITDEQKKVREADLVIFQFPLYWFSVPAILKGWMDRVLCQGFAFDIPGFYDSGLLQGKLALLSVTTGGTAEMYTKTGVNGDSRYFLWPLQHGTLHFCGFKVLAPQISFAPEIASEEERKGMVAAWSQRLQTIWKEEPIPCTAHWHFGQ

Row | Binder | binding [1] | binding [2] | binding [3] | binding [4] | binding [5] | binding [6]
1 | LZIP (Genbank ID: AF029674) (protein, human, UniProt O43889 1-371, looked up) MELELDAGDQDLLAFLLEESGDLGTAPDEAVRAPLDWALPLSEVPSDWEVDDLLCSLLSPPASLNILSSSNPCLVHHDHTYSLPRETVSMDLESESCRKEGTQMTPQHMEELAEQEIARLVLTDEEKSLLEKEGLILPETLPLTKTEEQILKRVRRKIRNKRSAQESRRKKKVYVGGLESRVLKYTAQNMELQNKVQLLEEQNLSLLDQLRKLQAMVIEISNKTSSSSTCILVLLVSFCLLLVPAMYSSDTRGSLPAEHGVLSRQLRALPSEDPYQLELPALQSEVPKDSTHQWLDGSDCVLQAPGNTSCLLHYMPQAPSAEPPLEWPFPDLFSEPLCRGPILPLQANLTRKGGWLPTGSPSVILQDRYSG | binds | binds | no binding | binds |  | 
2 | S100A9 (Genbank ID: M26311) (protein, human, UniProt P06702 1-114, looked up) MTCKMSQLERNIETIINTFHQYSVKLGHPDTLNQGEFKELVRKDLQNFLKKENKNEKVIEHIMEDLDTNADKQLSFEEFIMLMARLTWASHEKMHEGDEGPGHHHKPGLGEGTP |  |  |  |  | no binding | no binding
3 | Synphilin (Genbank ID: AF076929) (protein, human, UniProt Q9Y6H5 335-660, looked up) PHLAADNLDKIHDENGNNLLHIAASQGHAECLQHLTSLMGEDCLNERNTEKLTPAGLAIKNGQLECVRWMVSETEAIAELSCSKDFPSLIHYAGCYGQEKILLWLLQFMQEQGISLDEVDQDGNSAVHVASQHGYLGCIQTLVEYGANVTMQNHAGEKPSQSAERQGHTLCSRYLVVVETCMSLASQVVKLTKQLKEQTVERVTLQNQLQQFLEAQKSEGKSLPSSPSSPSSPASRKSQWKSPDADDDSVAKSKPGVQEGIQVLGSLSASSRARPKAKDEDSDKILRQLLGKEISENVCTQEKLSLEFQDAQASSRNSKKIPLEKR |  |  |  |  | no binding | no binding
4 | FHOS (Genbank ID: AF113615) (protein, human, UniProt Q9Y613 964-1164, looked up) TPQAAREVRIMQFCHTLREFALEYRTCRERVLQQQQKQATYRERNKTRGRMITETEKFSGVAGEAPSNPSVPVAVSSGPGRGDADSHASMKSLLTSRPEDTTHNRRSRGMVQSSSPIMPTVGPSTASPEEPPGSSLPSDTSDEIMDLLVQSVTKSSPRALAARERKRSRGNRKSLRRTLKSGLGDDLVQALGLSKGPGLEV |  |  |  |  | no binding | no binding

Reference: patent publication US20030157554A1
